Measurements taken from patent publication EP0533825B1, “ETHER LIPID-NUCLEOSIDE COVALENT CONJUGATES” (WAKE FOREST UNIVERSITY, priority 1990, dated 1991).
At least one compound was matched to its structure with a doubt left.

System: CEM-SS cells
Assay: Cell cytotoxicity (Table 1)
Format: cell-based
Conditions: read-out: Inhibitory Concentration50 For: Cell Cyto-toxicity

Question: For CCCCCCCCCCCCCCCCOCC(COP(=O)(O)OC[C@H]1O[C@@H](n2cc(C)c(=O)[nH]c2=O)C[C@@H]1N=[N+]=[N-])OC (stereo partly drawn) [Compound E, 3'-Azido-3'-deoxythymidine-5'-phosphono-D,L-3-hexadecyloxy-2-methoxypropane], which IC50 is on record?
Answer: 25.2 ± 1.1 µM
